Measured values as given in doi:10.1101/2024.12.01.626216.
Where two headings read alike, the source gives them in different places. No constants are given. Whether binding was seen depends on the method and setting. Binding seen in cells or lysates may run through a third protein. These calls come from enrichment with a bait or labelling near it, and not all partners need be listed. For some assays here: No binding means not detected with the bait.

By UniProt entry, the sequences of proteins in these tests, tags left out.
UniProt P68366: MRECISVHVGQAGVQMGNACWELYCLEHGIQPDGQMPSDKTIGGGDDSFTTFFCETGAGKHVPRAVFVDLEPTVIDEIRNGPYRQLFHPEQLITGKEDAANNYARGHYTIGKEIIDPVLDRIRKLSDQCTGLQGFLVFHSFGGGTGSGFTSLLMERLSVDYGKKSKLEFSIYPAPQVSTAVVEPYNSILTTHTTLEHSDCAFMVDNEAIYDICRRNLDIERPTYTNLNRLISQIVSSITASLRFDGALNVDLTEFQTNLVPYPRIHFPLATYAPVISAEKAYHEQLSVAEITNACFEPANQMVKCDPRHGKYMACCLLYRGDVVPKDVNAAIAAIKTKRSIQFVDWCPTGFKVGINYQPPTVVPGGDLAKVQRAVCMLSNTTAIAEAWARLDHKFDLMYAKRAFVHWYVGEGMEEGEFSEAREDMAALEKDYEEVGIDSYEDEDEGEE
UniProt P68363: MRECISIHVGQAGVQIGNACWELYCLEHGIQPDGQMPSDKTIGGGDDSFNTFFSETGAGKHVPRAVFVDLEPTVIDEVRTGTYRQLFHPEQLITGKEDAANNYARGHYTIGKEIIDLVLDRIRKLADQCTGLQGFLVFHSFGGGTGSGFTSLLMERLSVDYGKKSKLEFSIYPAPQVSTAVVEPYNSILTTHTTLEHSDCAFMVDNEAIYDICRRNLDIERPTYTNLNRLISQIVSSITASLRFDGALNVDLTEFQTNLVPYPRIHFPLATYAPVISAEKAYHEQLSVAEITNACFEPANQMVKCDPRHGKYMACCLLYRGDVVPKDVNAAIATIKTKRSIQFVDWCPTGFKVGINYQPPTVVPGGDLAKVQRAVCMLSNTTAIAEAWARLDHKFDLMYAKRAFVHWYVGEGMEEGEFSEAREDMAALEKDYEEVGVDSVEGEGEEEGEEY
UniProt P35637: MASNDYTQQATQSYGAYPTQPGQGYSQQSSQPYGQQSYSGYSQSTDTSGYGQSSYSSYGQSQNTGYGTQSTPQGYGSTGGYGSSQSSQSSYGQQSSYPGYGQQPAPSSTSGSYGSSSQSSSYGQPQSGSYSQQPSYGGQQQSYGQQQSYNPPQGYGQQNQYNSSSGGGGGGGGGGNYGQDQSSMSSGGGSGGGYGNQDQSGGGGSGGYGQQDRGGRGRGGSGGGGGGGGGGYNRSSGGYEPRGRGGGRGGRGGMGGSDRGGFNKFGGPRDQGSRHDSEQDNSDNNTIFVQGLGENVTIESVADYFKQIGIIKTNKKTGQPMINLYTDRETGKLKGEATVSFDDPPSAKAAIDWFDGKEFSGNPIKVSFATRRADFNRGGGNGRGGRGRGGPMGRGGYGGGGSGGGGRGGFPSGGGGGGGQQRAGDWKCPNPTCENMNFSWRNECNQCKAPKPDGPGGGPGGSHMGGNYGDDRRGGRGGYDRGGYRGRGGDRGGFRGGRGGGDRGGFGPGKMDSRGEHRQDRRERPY

B1: MATR3 (protein, UniProt P43243 1-847)
chain: MSKSFQQSSLSRDSQGHGRDLSAAGIGLLAAATQSLSMPASLGRMNQGTARLASLMNLGMSSSLNQQGAHSALSSASTSSHNLQSIFNIGSRGPLPLSSQHRGDADQASNILASFGLSARDLDELSRYPEDKITPENLPQILLQLKRRRTEEGPTLSYGRDGRSATREPPYRVPRDDWEEKRHFRRDSFDDRGPSLNPVLDYDHGSRSQESGYYDRMDYEDDRLRDGERCRDDSFFGETSHNYHKFDSEYERMGRGPGPLQERSLFEKKRGAPPSSNIEDFHGLLPKGYPHLCSICDLPVHSNKEWSQHINGASHSRRCQLLLEIYPEWNPDNDTGHTMGDPFMLQQSTNPAPGILGPPPPSFHLGGPAVGPRGNLGAGNGNLQGPRHMQKGRVETSRVVHIMDFQRGKNLRYQLLQLVEPFGVISNHLILNKINEAFIEMATTEDAQAAVDYYTTTPALVFGKPVRVHLSQKYKRIKKPEGKPDQKFDQKQELGRVIHLSNLPHSGYSDSAVLKLAEPYGKIKNYILMRMKSQAFIEMETREDAMAMVDHCLKKALWFQGRCVKVDLSEKYKKLVLRIPNRGIDLLKKDKSRKRSYSPDGKESPSDKKSKTDGSQKTESSTEGKEQEEKSGEDGEKDTKDDQTEQEPNMLLESEDELLVDEEEAAALLESGSSVGDETDLANLGDVASDGKKEPSDKAVKKDGSASAAAKKKLKKVDKIEELDQENEAALENGIKNEENTEPGAESSENADDPNKDTSENADGQSDENKDDYTIPDEYRIGPYQPNVPVGIDYVIPKTGFYCKLCSLFYTNEEVAKNTHCSSLPHYQKLKKFLNKLAEERRQKKET

What was measured:
[1] = target: T1, DNAJC7 (human (endogenous in iPSC-derived motor neurons)) (UniProt Q99615); assay: affinity purification with mass spectrometry; immunoprecipitation of endogenous DNAJC7 from wild-type iPSC-derived human motor neurons (DNAJC7 antibody covalently linked to beads), IgG control IP, LC-MS/MS, 3 independent differentiations
T1 sequence: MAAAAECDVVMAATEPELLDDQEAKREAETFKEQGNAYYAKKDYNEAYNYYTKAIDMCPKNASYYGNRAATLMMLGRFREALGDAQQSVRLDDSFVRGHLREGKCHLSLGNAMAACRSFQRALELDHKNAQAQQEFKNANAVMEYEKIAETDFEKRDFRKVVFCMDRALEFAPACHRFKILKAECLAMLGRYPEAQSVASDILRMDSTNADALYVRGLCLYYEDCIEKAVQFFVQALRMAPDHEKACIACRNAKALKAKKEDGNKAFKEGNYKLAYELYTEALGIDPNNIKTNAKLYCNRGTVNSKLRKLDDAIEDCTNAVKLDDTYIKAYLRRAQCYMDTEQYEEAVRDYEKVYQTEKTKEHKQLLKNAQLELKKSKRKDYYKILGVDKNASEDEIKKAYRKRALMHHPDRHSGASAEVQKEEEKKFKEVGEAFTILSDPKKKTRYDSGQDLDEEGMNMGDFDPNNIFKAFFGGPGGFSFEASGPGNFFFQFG

[2] = target: T1, DNAJC7 (human (endogenous in iPSC-derived motor neurons)); assay: as above; remark: listed apart in the source

Row | Molecule | binding [1] | binding [2]
1 | TUBA4A (from UniProt P68366 1-448) | binds | –
2 | TUBA1B (from UniProt P68363 1-451) | binds | –
3 | HNRNPK (from UniProt P61978 1-463) | binds | –
4 | FUS (from UniProt P35637 1-526) | no binding | –
5 | B1 | – | binds
